In paper PMC6201368:
These are yes or no findings as the source states them, for the method shown. Binding seen in cells or lysates may run through a third protein. Some results given as binding are weak or reduced against the parent protein; the word gives no strength.

Chains of the proteins cited; added tags and fusions are not shown. Lines headed by an entry give the natural chain unless they say otherwise; changes in a name come on top. A line that says so, or that is headed by a name, gives the form on record, which may keep a tag or linker.
SCN1Bβ/S248R (Q07699-2, form named): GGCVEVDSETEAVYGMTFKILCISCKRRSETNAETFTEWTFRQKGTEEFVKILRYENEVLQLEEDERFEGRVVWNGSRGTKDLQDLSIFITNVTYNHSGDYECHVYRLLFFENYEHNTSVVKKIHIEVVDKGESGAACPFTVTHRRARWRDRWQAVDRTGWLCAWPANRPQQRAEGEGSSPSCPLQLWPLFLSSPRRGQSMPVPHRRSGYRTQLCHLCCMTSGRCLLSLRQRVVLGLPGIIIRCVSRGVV
SCN1Bβ/R250T (Q07699-2, form named): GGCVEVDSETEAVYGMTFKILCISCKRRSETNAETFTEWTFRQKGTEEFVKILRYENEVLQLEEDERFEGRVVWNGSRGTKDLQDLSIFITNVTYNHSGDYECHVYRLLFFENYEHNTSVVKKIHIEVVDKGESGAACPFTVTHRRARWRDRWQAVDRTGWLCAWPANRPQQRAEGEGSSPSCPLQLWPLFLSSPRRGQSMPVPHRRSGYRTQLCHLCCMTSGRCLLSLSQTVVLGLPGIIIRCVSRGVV
SCN1Bβ/WT (Navβ1b, sodium channel beta1b subunit) (Q07699-2, form named): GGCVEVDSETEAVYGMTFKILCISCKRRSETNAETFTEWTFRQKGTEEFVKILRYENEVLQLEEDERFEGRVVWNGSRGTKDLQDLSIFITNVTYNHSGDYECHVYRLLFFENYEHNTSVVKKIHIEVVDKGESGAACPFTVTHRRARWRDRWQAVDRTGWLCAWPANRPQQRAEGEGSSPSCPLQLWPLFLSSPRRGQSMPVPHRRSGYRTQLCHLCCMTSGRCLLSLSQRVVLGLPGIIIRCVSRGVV

Biological target: T1, Kv4.3 (KCND3/WT) (human) (UniProt Q9UK17)
T1 sequence: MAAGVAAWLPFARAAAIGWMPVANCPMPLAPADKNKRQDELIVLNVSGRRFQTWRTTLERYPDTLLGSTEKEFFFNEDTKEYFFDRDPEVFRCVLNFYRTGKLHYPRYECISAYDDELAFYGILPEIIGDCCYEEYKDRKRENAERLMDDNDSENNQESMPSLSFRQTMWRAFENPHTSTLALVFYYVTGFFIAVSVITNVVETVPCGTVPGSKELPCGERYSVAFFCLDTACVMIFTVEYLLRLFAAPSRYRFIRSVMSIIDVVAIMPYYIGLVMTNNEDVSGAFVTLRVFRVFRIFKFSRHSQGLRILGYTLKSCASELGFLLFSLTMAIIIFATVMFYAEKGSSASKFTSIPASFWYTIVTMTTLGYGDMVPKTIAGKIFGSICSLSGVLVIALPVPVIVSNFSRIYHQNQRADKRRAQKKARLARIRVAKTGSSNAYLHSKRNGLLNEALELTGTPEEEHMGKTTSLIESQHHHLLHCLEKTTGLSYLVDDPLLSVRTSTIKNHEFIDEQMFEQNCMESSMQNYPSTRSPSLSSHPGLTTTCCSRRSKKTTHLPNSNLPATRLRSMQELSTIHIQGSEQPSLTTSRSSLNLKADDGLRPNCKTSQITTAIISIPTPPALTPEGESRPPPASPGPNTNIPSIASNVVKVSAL
Assay: co-IP; HEK293 co-transfected with KCND3/WT and SCN1Bβ (WT, S248R or R250T), 48 h; membrane protein lysates incubated with anti-Kv4.3 antibody overnight at 4°C, Protein G Dynabeads 1 h at room temperature, washed three times with PBS with 0.02% Tween-20; blotted with anti-Kv4.3 and anti-SCN1Bβ

binding, binds:
SCN1Bβ/S248R (from UniProt Q07699-2 19-268)
SCN1Bβ/R250T (from UniProt Q07699-2 19-268)
SCN1Bβ/WT (Navβ1b, sodium channel beta1b subunit) (from UniProt Q07699-2 19-268)
